PubChem BioAssay AID686938 – Drosophila RNAi Screening Center, 2013
The deposit covers about 23,000 reagents; this is an unselected part of those with a known target gene and a result. Of all reagents, 75 (0.33%) are marked active. 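Raw plate signals without normalisation; calls rest on plate z-scores that were not deposited; ratio present for only 364 wells.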 A number with no mark means an inactive call. Names joined by + are all predicted targets of the reagent. Not stated in the record: the dose of the treatment.

Assay: 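Fly genes required for calcium entry once internal stores are emptied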 (primary screen)
Cell system: Drosophila S2R+ cells
Reagents: long dsRNA against Drosophila genes, about 0.25 µg dsRNA per well, roughly 10,000 cells
Time to read-out: 5 days of knock-down before the calcium assay
Treatment: thapsigargin (SERCA pump blocker) to empty calcium stores; entry signal taken 4 min after adding it
Measured: 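Per-well fluo-4 fluorescence in two replicates, unnormalised, measured in resting cells and 4 min after store depletion by the SERCA blocker thapsigargin; ratio of the two present in few wells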
Reading the numbers: calcium entry signal: higher = stronger calcium signal after store depletion; entry to resting ratio: higher = more calcium entry relative to resting level; resting calcium signal: higher = higher resting calcium signal
Call rule: 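Called when the plate z-score of the entry-to-rest ratio, mean of duplicates, falls below −3; wells with low overall dye signal (Fmax z below −2) or more than five off-targets excluded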
Calls: active = strongly reduced calcium entry; inactive = no strong reduction

no.	gene	amplicon	calcium entry signal, replicate 1 (fluorescence units)	calcium entry signal, replicate 2 (fluorescence units)	entry to resting ratio	resting calcium signal, replicate 1 (fluorescence units)	resting calcium signal, replicate 2 (fluorescence units)
1	CG12502	DRSC08281	2.13e7	3.43e7		1.15e7	1.53e7
2	CG12502	DRSC23247	3.77e7	3.39e7		2.21e7	1.54e7
3	link	DRSC06368	2.84e7	2.38e7		1.60e7	1.27e7
4	CG2772	DRSC00530	3.01e7	3.42e7		1.53e7	1.57e7
5	CG3224	DRSC18295	2.58e7	3.03e7		1.40e7	1.63e7
6	CG32650	DRSC19899	4.23e7	4.54e7		1.94e7	2.02e7
7	TfIIEalpha (Transcription factor IIEalpha)	DRSC11303	4.38e7	2.96e7		3.54e7	1.44e7
8	CG43136	DRSC17417	2.53e7	3.68e7		1.25e7	1.66e7
9	CG1090	DRSC12150	4.69e7	5.21e7		2.18e7	3.63e7
10	CG1090	DRSC21604	3.08e7	3.18e7		1.67e7	1.43e7
11	sd (scalloped)	DRSC20370	3.30e7	3.03e7		1.63e7	1.27e7
12	sd (scalloped)	DRSC21712	4.22e7	3.47e7		2.30e7	1.48e7
13	CAH4 (Carbonic anhydrase 4)	DRSC22433	3.36e7	3.07e7		1.64e7	1.42e7
14	TTLL3A (Tubulin tyrosine ligase-like 3A)	DRSC02143	2.63e7	2.64e7		1.28e7	1.24e7
15	Rab18	DRSC18702	2.98e7	3.41e7		1.46e7	1.66e7
16	AP-2sigma (Adaptor Protein complex 2, sigma subunit)	DRSC15957	3.54e7	3.82e7		4.72e7	1.65e7
17	CG1636	DRSC18111	2.58e7	3.60e7		1.22e7	1.70e7
18	chic (chickadee)	DRSC03507	3.41e7	4.04e7		1.82e7	2.00e7
19	cbt (cabut)	DRSC00655	4.68e7			2.54e7	
20	nolo (no long nerve cord)	DRSC03705	3.53e7			1.68e7	
21	nolo (no long nerve cord)	DRSC03719	2.79e7	3.49e7		1.47e7	1.62e7
22	nolo (no long nerve cord)	DRSC03720	2.78e7	3.32e7		1.49e7	1.59e7
23	how (held out wings)	DRSC16966	3.53e7	4.77e7		2.32e7	6.11e7
24	Nfs1 (Nfs1 cysteine desulfurase)	DRSC02154	6.43e7			2.85e7	
25	CG42237	DRSC19891	3.44e7	4.08e7		1.71e7	1.79e7
26	CG10479	DRSC09733	4.19e7	2.84e7		2.89e7	1.28e7
27	slim (scruin like at the midline)	DRSC06921	3.94e7	4.08e7		1.82e7	2.01e7
28	hlk (hulk)	DRSC05021	3.56e7	4.99e7		1.92e7	2.23e7
29	hlk (hulk)	DRSC05022	3.71e7	5.18e7		2.03e7	2.45e7
30	klu (klumpfuss)	DRSC11357	2.45e7	3.17e7		1.29e7	1.37e7
31	Adh + Adhr	DRSC01862	5.22e7			2.33e7	
32	Adh + Adhr	DRSC01863	5.14e7	2.99e7		2.16e7	1.45e7
33	CG5282	DRSC11775	4.52e7	4.81e7		2.07e7	3.33e7
34	CG31556 (retired record)	DRSC12122	3.65e7	4.69e7		1.88e7	2.45e7
35	CG31556 (retired record)	DRSC22177	2.61e7	4.57e7		1.31e7	2.27e7
36	CG42296	DRSC00394	3.89e7	3.76e7		1.81e7	1.74e7
37	Sec61gamma (Sec61 gamma subunit)	DRSC19570	3.31e7 (active)	3.66e7		2.30e7	2.19e7
38	CG43108	DRSC05654	3.02e7	3.81e7		1.43e7	1.99e7
39	Ir51b (Ionotropic receptor 51b)	DRSC05540	3.64e7	4.71e7		1.84e7	2.07e7
40	Sec10 (Secretory 10)	DRSC17053	2.67e7	2.98e7		1.41e7	1.44e7
41	CG11159	DRSC06050	2.67e7	2.67e7		1.47e7	1.24e7
42	nop5	DRSC03582	2.11e7	1.73e7		1.25e7	1.10e7
43	CG42795	DRSC12772	2.30e7	2.97e7		1.09e7	1.44e7
44	CG42795	DRSC15533	2.69e7	2.29e7		1.53e7	1.29e7
45	CG4278	DRSC02741	4.48e7			2.38e7	
46	CG17768 + LSm-4	DRSC02845	2.95e7	3.82e7		1.47e7	1.78e7
47	CG3280 (retired record)	DRSC10356	3.00e7	3.82e7		1.46e7	1.64e7
48	CG11381	DRSC17780	4.91e7	8.32e7	2	2.52e7	3.52e7
49	Hers (Histone gene-specific Epigenetic Repressor in late S phase)	DRSC19429	3.19e7	4.38e7		1.53e7	1.93e7
50	Hers (Histone gene-specific Epigenetic Repressor in late S phase)	DRSC19676	4.50e7	3.87e7		2.05e7	1.75e7
51	CG34164	DRSC02837	3.52e7	2.02e7		1.69e7	9.71e6
52	Ag5r2 (Antigen 5-related 2)	DRSC19328	3.32e7	3.12e7		1.79e7	1.46e7
53	CG10516	DRSC09738	5.73e7	7.10e7		2.50e7	2.89e7
54	CG5160	DRSC02821	3.88e7	4.15e7		2.01e7	1.87e7
55	NAT1	DRSC06854	3.19e7	5.07e7		2.49e7	2.66e7
56	SCCRO4 (Squamous cell carcinoma-related oncogene 4)	DRSC10671	2.20e7	4.01e7		1.04e7	1.81e7
57	rdx (roadkill)	DRSC14526	4.17e7	6.59e7		2.24e7	6.34e7
58	rdx (roadkill)	DRSC16580	3.67e7	5.45e7		1.95e7	5.68e7
59	rdx (roadkill)	DRSC23120	3.44e7	3.14e7		1.64e7	1.44e7
60	Sox21a	DRSC10819	4.40e7	5.76e7		2.14e7	2.50e7
61	CG42841	DRSC07962	3.57e7	4.48e7		1.78e7	2.04e7
62	pasi2 (pasiflora 2)	DRSC16380	2.05e7	2.12e7		1.08e7	1.23e7
63	GEFmeso (Guanine nucleotide exchange factor in mesoderm)	DRSC06748	4.17e7	3.31e7		1.74e7	1.63e7
64	GEFmeso (Guanine nucleotide exchange factor in mesoderm)	DRSC06940	5.56e7	6.50e7		2.32e7	2.99e7
65	GEFmeso (Guanine nucleotide exchange factor in mesoderm)	DRSC21475	2.17e7	2.34e7		1.14e7	1.15e7
66	Npc2g (Niemann-Pick type C-2g)	DRSC14296	4.13e7	5.58e7		2.17e7	2.35e7
67	Ugt317A1 (UDP-glycosyltransferase family 317 member A1)	DRSC04470	3.90e7	4.27e7		1.98e7	1.90e7
68	2mit	DRSC14194	2.42e7	2.96e7		1.17e7	4.29e7
69	2mit	DRSC15224	2.54e7	2.79e7		1.31e7	4.61e7
70	CG6426	DRSC06985	3.17e7	2.78e7		1.46e7	1.36e7
71	CG31759	DRSC01230	3.75e7	4.72e7		2.01e7	2.02e7
72	PGRP-SA (Peptidoglycan recognition protein SA)	DRSC19420	3.03e7	4.67e7		1.53e7	2.24e7
73	CG34178 + CG34177	DRSC00351	2.69e7	2.50e7		1.39e7	1.19e7
74	GXIVsPLA2	DRSC10243	3.82e7	5.03e7		1.78e7	3.43e7
75	CG7333	DRSC16229	4.16e7	4.50e7		5.71e7	2.10e7
